Reference: paper PMC5902613
These are yes or no findings as the source states them, for the method shown. In cells and extracts the contact can be indirect. Some binding calls cover weakened binding; strength is not graded here.

Protein sequences, listed by entry. Tags and fused reporters are not part of them.
UniProt P31269: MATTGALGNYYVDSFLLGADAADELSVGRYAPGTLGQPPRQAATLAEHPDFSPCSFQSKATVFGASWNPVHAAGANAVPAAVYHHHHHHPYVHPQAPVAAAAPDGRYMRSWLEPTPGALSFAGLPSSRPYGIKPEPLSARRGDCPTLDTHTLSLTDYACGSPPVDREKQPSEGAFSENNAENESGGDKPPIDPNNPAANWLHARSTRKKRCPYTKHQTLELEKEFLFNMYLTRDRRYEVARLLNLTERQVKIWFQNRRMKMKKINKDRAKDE

How the values were obtained:
[1] = target: Homeobox A9 (HOXA9) (human (endogenous in the paper's human cell lines)) (UniProt P31269); assay: co-IP; Pierce crosslinking magnetic IP/Co-IP kit; 5 ug antibody cross-linked with DSS to protein A/G magnetic beads; cleared cell lysate in IP Lysis/Wash buffer, 1 h incubation; irrelevant IgG as control; western blot detection; with or without HOXA9 overexpression
[2] = target: HOXA9, overexpressed from the HOXA9 expressing construct (Addgene) (UniProt P31269); assay: as above

binding [1]: binds
binding [2]: binds
B1: CRIP2 (protein, UniProt P52943 1-208)
chain: MASKCPKCDKTVYFAEKVSSLGKDWHKFCLKCERCSKTLTPGGHAEHDGKPFCHKPCYATLFGPKGVNIGGAGSYIYEKPLAEGPQVTGPIEVPAARAEERKASGPPKGPSRASSVTTFTGEPNTCPRCSKKVYFAEKVTSLGKDWHRPCLRCERCGKTLTPGGHAEHDGQPYCHKPCYGILFGPKGVNTGAVGSYIYDRDPEGKVQP
